Source: PubChem BioAssay AID624291 (National Center for Advancing Translational Sciences (NCATS), 2012)
Among all 350,000 compounds or so, about 220 (0.063%) were called active. The shares of active, inactive and inconclusive entries below differ from those in the screen. The call rests on the fitted dose curve; in most records, active means well fitted activation curve with a large enough effect; inconclusive means small, poorly fitted or top-dose-only effect; inactive means no such curve, though single readings can be large or run the other way. Where the call is inconclusive, the potency comes from a doubtful curve fit.

Assay: qHTS for Activators of Integrin-Mediated Alleviation for Muscular Dystrophy; further: nearly all actives have a fitted effect of over 60% in size;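 on activation: 100% = response of the positive control SU9516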
Settings: alpha7betagal myoblasts, beta-gal FDG fluorescence, 48 h; activation: at 38.3 µM (top of the series)
Method in brief: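 Alpha7betagal+/- myoblasts (passage 13) were plated 16-24 hr, then exposed to compounds (1:260 dilution of DMSO stock) for 48 hours at 37C. After MPER lysis, β-galactosidase reporter activity was read as FDG fluorescence (ex 480/em 540) after 30 minutes.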
Potency means the concentration at half of the fitted maximal effect.

Structure (SMILES)	Potency	activation
CC(C)[C@H](NC(=O)N1CC(=O)Nc2ccccc21)C(=O)N[C@H](C(=O)O)c1ccccc1	inconclusive: 3.55 µM [activator, partial curve, poor fit]	
O=C(Cc1ccc2c(c1)OCCO2)N1CCN(S(=O)(=O)c2ccccc2C(F)(F)F)CC1	inconclusive: 28.2 µM [activator, single point]	
CCOC(=O)NN1C(=O)c2ccccc2NC1c1cccc(O)c1 (stereo not drawn)	inconclusive: 28.2 µM [activator, single point]	
CC(=O)Nc1ccc(SC(C)C(=O)NC2CCCC2)cc1 (stereo not drawn)	inconclusive: 20 µM [activator, single point]	
CCC(NCc1cccnc1)c1ccc(OC)c(OC)c1 (stereo not drawn)	inconclusive: 28.2 µM [activator, single point]	
COc1ccc2occ(C(=O)c3ccccc3)c2c1	inactive	
Cc1ccn2c(CC(C)(C)C)c(-c3ccc(F)cc3)nc2c1	inactive	
O=C(CN1C(=O)NC2(CCCCCCC2)C1=O)Nc1ccc(Br)cc1Br	inconclusive: 0.891 µM [activator, full curve, poor fit]	
Cc1nc(Nc2ccccc2F)c2oc3ccccc3c2n1	inconclusive: 7.08 µM [activator, partial curve, poor fit]	
COc1ccc(CC(=O)OCC(=O)NNC(=O)c2ccccc2)cc1	inconclusive: 5.01 µM [activator, single point]	
O=c1nc(Nc2ccc(OCc3ccccc3)cc2)sc2ncccc12	inconclusive: 5.62 µM [activator, single point]	
COc1ccc(S(=O)(=O)NCC(c2ccco2)N2CCc3ccccc3C2)cc1 (stereo not drawn)	inconclusive: 2.82 µM [activator, full curve]	
CC(=O)C1=NOC2C(=O)N(c3ccc(Cl)cc3)C(=O)C12 (stereo not drawn)	inconclusive: 3.55 µM [activator, full curve, poor fit]	
CCCCCCC[C@@H](C/C=C/CCC(=O)N(C)C/C(=C/Cl)C/C(=C\C(=O)N1CC(OC)=CC1=O)OC)OC	inconclusive: 0.501 µM [activator, full curve, poor fit]	
Nc1ccc(CCn2ccnc2)cc1	inconclusive: 11.2 µM [activator, single point]	
CCCCCCCCCCOC(=O)Cn1c(COc2ccccc2OC)[n+](C)c2ccccc21		inconclusive: -65% [activator]
CCOC(=O)c1cc2c(nc1NC(=S)NCc1ccccc1)CCCC2	inactive	
CCCCC1(CO)C(=O)N(c2ccccc2)N(c2ccccc2)C1=O	inconclusive: 5.01 µM [activator, single point]	

Two of the compounds above, as a markdown table:

| Structure (SMILES) | Potency | activation |
| --- | --- | --- |
| O=C(Cc1ccc2c(c1)OCCO2)N1CCN(S(=O)(=O)c2ccccc2C(F)(F)F)CC1 | inconclusive: 28.2 µM [activator, single point] |  |
| COc1ccc(CC(=O)OCC(=O)NNC(=O)c2ccccc2)cc1 | inconclusive: 5.01 µM [activator, single point] |  |
